Experimental data from PMC3562248.
Results are given in words; binding and its absence hold for the method and conditions named. Binding seen in cells or lysates may run through a third protein. A yes stands for co-enrichment or nearness to the bait. Other partners may have been found. A no says only that the protein was not detected with the bait.

Biological target: histone H3 N-terminal tail peptide (aa 1-21), unmodified, C-terminal biotin (UniProt P68431)
Experiment: affinity purification with mass spectrometry; biotinylated H3 1-21 peptide immobilised on streptavidin agarose beads, 2 mg HeLa nuclear extract, 3 h at 4°C, wash with 250 mM KCl; Coomassie-stained bands cut out and identified by mass spectrometry; only the target purified

binding: no binding
Substance: CoREST (endogenous, HeLa) (from UniProt Q9UKL0 1-485)
